These results are taken from publication PMC4589731.

Amino acid sequences for entries named in this document (tags omitted).
UniProt O75147: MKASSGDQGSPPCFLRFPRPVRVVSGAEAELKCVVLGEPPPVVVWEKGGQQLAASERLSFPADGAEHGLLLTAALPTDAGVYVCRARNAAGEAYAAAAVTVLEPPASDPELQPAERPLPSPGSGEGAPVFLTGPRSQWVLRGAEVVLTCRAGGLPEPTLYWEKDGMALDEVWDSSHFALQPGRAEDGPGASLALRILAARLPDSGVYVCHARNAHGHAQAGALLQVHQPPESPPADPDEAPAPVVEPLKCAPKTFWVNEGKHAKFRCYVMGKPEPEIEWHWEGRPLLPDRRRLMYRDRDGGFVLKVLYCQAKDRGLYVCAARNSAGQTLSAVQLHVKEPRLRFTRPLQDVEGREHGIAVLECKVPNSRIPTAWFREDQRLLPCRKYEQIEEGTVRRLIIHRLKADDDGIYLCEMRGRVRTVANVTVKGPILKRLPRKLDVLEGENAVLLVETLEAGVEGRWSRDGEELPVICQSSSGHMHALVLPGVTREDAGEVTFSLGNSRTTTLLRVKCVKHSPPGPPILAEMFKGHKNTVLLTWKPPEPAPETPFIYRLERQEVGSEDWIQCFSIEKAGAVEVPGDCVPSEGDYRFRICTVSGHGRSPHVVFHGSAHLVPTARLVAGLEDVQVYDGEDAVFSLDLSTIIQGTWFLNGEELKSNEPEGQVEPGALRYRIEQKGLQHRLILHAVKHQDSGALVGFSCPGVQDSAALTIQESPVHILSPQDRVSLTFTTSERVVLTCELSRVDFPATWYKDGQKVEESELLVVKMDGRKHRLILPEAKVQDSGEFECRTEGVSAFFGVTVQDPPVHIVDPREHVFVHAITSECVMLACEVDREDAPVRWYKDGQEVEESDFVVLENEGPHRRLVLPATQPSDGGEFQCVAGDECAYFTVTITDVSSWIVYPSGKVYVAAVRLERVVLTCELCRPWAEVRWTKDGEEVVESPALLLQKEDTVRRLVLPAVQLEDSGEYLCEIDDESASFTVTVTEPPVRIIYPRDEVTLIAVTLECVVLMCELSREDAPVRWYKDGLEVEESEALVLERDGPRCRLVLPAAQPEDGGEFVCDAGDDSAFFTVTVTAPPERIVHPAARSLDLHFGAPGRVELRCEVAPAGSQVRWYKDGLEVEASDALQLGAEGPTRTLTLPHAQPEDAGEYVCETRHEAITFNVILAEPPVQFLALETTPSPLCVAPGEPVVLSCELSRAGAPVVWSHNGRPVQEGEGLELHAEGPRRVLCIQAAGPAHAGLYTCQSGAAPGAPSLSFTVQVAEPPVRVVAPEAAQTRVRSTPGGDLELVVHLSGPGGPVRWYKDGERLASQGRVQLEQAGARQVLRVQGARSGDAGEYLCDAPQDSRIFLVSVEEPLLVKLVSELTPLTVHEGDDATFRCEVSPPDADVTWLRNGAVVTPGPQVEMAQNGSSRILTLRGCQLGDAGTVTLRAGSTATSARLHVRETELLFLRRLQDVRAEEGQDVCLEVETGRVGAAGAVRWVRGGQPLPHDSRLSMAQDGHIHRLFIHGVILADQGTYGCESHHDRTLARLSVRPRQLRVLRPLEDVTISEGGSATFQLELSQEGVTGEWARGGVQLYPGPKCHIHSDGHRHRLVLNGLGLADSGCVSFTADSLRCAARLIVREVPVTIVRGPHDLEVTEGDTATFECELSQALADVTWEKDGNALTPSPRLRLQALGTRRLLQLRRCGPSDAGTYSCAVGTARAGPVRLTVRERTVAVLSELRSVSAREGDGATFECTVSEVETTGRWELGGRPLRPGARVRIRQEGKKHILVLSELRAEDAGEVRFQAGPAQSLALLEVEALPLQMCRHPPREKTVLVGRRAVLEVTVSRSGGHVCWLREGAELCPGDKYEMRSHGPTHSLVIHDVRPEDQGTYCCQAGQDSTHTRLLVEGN
UniProt Q14999: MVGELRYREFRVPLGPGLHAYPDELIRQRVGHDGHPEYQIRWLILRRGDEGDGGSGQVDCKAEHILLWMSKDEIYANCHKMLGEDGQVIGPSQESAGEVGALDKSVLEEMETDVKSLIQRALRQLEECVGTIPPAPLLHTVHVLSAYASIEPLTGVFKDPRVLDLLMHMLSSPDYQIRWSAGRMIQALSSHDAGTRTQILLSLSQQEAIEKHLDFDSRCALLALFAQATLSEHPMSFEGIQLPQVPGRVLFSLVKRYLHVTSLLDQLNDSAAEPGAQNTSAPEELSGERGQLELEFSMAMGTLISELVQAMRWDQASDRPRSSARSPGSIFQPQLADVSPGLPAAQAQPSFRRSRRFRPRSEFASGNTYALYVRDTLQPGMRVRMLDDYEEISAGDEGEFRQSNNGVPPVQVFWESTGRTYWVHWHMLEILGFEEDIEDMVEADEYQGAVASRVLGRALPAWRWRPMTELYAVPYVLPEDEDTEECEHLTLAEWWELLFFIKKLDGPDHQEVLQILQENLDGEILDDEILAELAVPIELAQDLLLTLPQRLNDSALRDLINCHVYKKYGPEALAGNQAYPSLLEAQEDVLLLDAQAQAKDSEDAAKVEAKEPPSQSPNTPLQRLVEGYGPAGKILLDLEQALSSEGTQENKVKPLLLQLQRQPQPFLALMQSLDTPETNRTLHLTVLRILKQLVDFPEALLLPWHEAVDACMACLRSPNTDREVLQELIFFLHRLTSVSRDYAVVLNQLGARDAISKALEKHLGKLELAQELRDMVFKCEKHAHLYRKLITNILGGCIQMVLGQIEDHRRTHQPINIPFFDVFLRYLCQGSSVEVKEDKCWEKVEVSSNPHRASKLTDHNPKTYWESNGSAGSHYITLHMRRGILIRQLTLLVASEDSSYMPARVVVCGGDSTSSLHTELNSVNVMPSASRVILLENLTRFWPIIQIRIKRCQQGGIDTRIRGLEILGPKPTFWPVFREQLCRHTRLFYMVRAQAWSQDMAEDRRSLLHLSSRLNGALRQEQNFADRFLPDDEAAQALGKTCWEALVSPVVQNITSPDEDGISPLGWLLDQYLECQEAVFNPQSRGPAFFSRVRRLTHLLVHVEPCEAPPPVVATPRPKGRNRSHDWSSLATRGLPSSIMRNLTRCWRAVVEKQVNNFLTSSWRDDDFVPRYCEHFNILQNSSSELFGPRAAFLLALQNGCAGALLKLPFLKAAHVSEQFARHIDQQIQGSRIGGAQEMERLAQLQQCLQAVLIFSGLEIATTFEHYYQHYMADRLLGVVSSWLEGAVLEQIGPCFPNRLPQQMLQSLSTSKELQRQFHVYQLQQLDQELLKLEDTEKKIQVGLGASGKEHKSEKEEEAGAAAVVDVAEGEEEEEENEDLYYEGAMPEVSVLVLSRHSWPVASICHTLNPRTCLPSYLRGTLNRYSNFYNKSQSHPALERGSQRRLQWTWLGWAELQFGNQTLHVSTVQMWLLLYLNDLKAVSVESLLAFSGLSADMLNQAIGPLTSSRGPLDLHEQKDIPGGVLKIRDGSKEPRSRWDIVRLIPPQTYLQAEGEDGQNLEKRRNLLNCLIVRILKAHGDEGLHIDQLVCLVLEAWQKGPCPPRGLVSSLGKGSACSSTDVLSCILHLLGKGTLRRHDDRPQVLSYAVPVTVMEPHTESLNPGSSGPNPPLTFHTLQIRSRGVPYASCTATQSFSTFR

Results are given in words; binding and its absence hold for the method and conditions named. Binding seen in cells or lysates may run through a third protein. Some entries that bind do so weakly or less than the wild type. Where a sequence is shown, tags or fusion partners need not be part of it.

This test addresses T1, Flag-tagged CCDC8 (human) (UniProt Q9H0W5).
T1 sequence: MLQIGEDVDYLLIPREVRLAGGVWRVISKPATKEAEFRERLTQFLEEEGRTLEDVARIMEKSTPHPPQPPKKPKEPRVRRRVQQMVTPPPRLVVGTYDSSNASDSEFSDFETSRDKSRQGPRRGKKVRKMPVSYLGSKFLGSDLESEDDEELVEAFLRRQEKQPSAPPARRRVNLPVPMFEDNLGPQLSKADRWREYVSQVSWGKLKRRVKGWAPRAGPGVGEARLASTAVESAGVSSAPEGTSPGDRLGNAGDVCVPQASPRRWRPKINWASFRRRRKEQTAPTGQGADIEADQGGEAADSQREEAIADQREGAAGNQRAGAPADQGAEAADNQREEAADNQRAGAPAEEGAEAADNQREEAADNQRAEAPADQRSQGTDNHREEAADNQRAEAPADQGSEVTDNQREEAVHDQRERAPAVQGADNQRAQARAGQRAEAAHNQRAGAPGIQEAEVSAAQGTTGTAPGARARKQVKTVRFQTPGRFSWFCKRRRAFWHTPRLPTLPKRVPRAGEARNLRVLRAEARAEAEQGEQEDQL
The experiment in a line: co-IP; lysates of transfected cells (BC100 buffer: 20 mM Tris-HCl pH 7.5, 100 mM NaCl, 1% Triton X-100, 1% CHAPS) incubated with anti-Flag M2 agarose beads at 4 °C overnight, five washes, eluted with 3xFlag peptide, Western blot; proteasome inhibitor PS-341 added in Fig. 4c. In general terms: In western blotting, separated proteins are transferred to a membrane and probed.

As to “V5-tagged obscurin-like 1 (Obsl1) (from UniProt O75147 1-1896)”, the binding entry is reported as “binds”.
The result for “Flag-tagged E3 ligase Cul7 (from UniProt Q14999 1-1698)” reads “binds”.
